According to paper PMC10252837, “A Novel Time-Resolved Fluorescence Resonance Energy Transfer Assay for the Discovery of Small-Molecule Inhibitors of HIV-1 Tat-Regulated Transcription” (International Journal of Molecular Sciences, 2023):

Legend:
HIV-1NL4-3 = experiment: HIV-1 infectivity in TZM-bl cells (LTR-driven F-Luc); assay type: cell-based
Method: (§1) (A) (Upper panel) Doxycycline (Dox)-inducible Tat-expressing bl-DTR cells cultured in 96-well plates treated with two-fold serial dilutions of each compound in the presence of Dox (50 ng/mL). At 24 h after treatment, the activity of firefly luciferase (F-Luc), indicating Tat activity, was determined as described in the Materials and Methods section. (Bottom panel) TZM-bl cells were treated with two-fold serial dilutions of the indicated compound and then infected with the HIV-1NL4-3 strain at a multiplicity of infection (MOI) of 1. At 24 h after infection, the viral infectivity and cell viability were determined as described in the Materials and Methods section. […] At 24 h after treatment, LTR promoter activity was determined via a Bright-Glo Luciferase Assay Kit. […] The mobility of biotinylated TAR RNA was detected by chemiluminescence.
To determine the inhibitory effect of hit compounds on HIV-1 infection, we used TZM-bl cells (also referred to as JC53BL-13), which express HIV-1 receptors and contain the LTR-driven F-Luc gene controlled by HIV-1 infection, as described previously but with some minor modifications. […] At 24 h after infection, the inhibitory effect of the hit compounds on infectivity was determined using the Bright-Glo Luciferase Assay Kit (Promega). The dose–response data are expressed as a relative percentage compared to the DMSO control (vehicle). […]

[1] = test system: Tat activity (Tat-induced viral transcription); experiment: microbe, parasite or virus in culture; assay type: cell-based, HIV-1; conditions: Human immunodeficiency virus 1, 24 h, read-out: IC50 of Tat Activity
Method: as §1
The inhibitory effect of hit compounds on Tat-mediated transcription was determined using doxycycline (Dox)-inducible Tat-expressing TZM-bl cells that express the LTR-driven firefly luciferase (F-Luc) gene under the control of Tat upon Dox treatment, as described previously but with minor modifications. […] After 24 h, the inhibitory effect of the hit compounds on Tat activity was determined by measuring F-Luc activity using a Bright-Glo Luciferase Assay Kit (Promega, Madison, WI, USA). […]

Question: With `CC[C@H](CO)Nc1nc(NCc2ccccc2)c2ncn(C(C)C)c2n1` [Seliciclib, reference compound] as the molecule, how does the IC50 (HIV-1NL4-3; Human immunodeficiency virus 1, TZM-bl, 24 h, read-out: IC50 of Infectivity) read?
Answer: The IC50 was 2400 ± 327 nM.

Question: And the “SI (selectivity index)” value (HIV-1NL4-3; TZM-bl cells)?
Answer: Its value is >5.217.

Question: And the IC50 [1]?
Answer: Its IC50 is 2060 ± 409 nM.
